Data reported in patent publication US20060148703A1.
These are yes or no findings as the source states them, for the method shown. Some results given as binding are weak or reduced against the parent protein; the word gives no strength.

Chains of the proteins cited; added tags and fusions are not shown. Residues count along the entry.
UniProt P02769, residues 25-607: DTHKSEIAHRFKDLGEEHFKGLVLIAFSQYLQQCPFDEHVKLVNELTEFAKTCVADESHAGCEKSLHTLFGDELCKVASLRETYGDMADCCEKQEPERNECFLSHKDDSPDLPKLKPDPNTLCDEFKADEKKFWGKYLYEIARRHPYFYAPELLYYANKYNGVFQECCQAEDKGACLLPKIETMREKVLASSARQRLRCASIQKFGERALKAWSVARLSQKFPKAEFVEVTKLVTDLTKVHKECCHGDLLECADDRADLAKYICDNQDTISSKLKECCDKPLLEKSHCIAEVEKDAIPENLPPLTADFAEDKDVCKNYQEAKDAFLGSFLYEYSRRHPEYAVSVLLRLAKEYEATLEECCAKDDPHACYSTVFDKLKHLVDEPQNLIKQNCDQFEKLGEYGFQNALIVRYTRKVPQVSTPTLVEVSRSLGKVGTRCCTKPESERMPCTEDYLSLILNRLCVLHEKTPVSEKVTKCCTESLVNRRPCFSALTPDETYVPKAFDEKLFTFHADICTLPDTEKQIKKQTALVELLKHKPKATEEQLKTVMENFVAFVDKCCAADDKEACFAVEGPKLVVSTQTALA
UniProt P01127, residues 82-190: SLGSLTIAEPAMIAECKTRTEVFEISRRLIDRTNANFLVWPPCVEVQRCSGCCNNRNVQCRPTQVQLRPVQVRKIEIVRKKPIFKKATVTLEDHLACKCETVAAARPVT

How the values were obtained:
[1] = molecular target: T1, self-assembling peptide nanofibers (peptide sequence AcN-…-CNH2); test: 100 ng protein embedded in NFs, incubated in PBS 3 h at 37 C, Bradford assay of the supernatant; BSA is the weaker comparator
T1 sequence (peptide, N-terminal acetyl and C-terminal amide, printed as AcN-...-CNH2): RARADADARARADADA

[2] = molecular target: T1, self-assembling peptide nanofibers (peptide sequence AcN-…-CNH2); test: protein embedded in NFs, in vitro binding

Row | binding [1] | binding [2] | Substance
1 | binds | – | BSA (Sigma-Aldrich) (from UniProt P02769 25-607)
2 | – | binds | human PDGF-BB (PeproTech) (from UniProt P01127 82-190) (ligand)
